# In patent US9867372B2, “Tetrazolinone compound and use of same” (SUMITOMO CHEMICAL COMPANY, LIMITED, priority 2013, dated 2018):
# Some of these results come from one statement about several compounds together.
# Tests used:
# Format in all cases: in vivo
# [1] = tested on: wheat leaf blotch fungus (Septoria tritici); test: wheat leaf blotch control test, foliar spray after inoculation; conditions: 200 ppm, sprayed 3 days after inoculation (Test Example 13)
# [2] = tested on: wheat leaf blotch fungus (Septoria tritici); test: wheat leaf blotch control test, foliar spray 4 days before inoculation
# [3] = tested on: barley net blotch fungus (Pyrenophora teres); test: barley net blotch control test, foliar spray before inoculation
# [4] = tested on: cucumber anthracnose fungus (Colletotrichum lagenarium); test: cucumber anthracnose control test, foliar spray before inoculation; conditions: 200 ppm, sprayed one day before inoculation (Test Example 19)
# [5] = tested on: barley scald fungus (Rhynchosporium secalis); test: barley scald control test, foliar spray before inoculation; conditions: 200 ppm, sprayed 2 days before inoculation (Test Example 16)
# [6] = 500 ppm, sprayed 4 days before inoculation (Test Example 11)
# [7] = 500 ppm, sprayed 2 days before inoculation (Test Example 7)
# [8] = 200 ppm, sprayed 2 days before inoculation (Test Example 8)
# [9] = 200 ppm, sprayed 4 days before inoculation (Test Example 12)
smiles,measurement,setting,value
Cc1cccc(-n2nnn(C)c2=O)c1COc1cccc(-c2ccc(Cl)cc2)n1 [compound 2],area of lesion spots on the treated plant relative to that on an untreated plant,[1],≤ 30%
Cc1cccc(-n2nnn(C)c2=O)c1COc1cccc(-c2ccc(C#N)cc2)n1 [compound 10],area of lesion spots on the treated plant relative to that on an untreated plant,[2]; [6],≤ 30%
same,area of lesion spots on the treated plant relative to that on an untreated plant,[3]; [7],≤ 30%
Cc1cccc(-n2nnn(C)c2=O)c1COc1cccc(-c2ccc([N+](=O)[O-])cc2)n1 [compound 17],area of lesion spots on the treated plant relative to that on an untreated plant,[3]; [8],≤ 30%
COc1ccc(-c2cncc(OCc3c(C)cccc3-n3nnn(C)c3=O)n2)cc1 [compound 26],area of lesion spots on the treated plant relative to that on an untreated plant,[2]; [6],≤ 30%
same,area of lesion spots on the treated plant relative to that on an untreated plant,[4],≤ 30%
COc1ccc(-c2ccnc(OCc3c(C)cccc3-n3nnn(C)c3=O)c2)cc1 [compound 29],area of lesion spots on the treated plant relative to that on an untreated plant,[3]; [7],≤ 30%
COc1cccc(-n2nnn(C)c2=O)c1COc1cc(-c2ccccc2)ccc1C [compound 36],area of lesion spots on the treated plant relative to that on an untreated plant,[3]; [8],≤ 30%
COc1cccc(-n2nnn(C)c2=O)c1COc1cc(-c2ccccc2Cl)ccc1C [compound 38],area of lesion spots on the treated plant relative to that on an untreated plant,[2]; [9],≤ 30%
COc1ccc(-c2cccc(OCc3c(C4CC4)cccc3-n3nnn(C)c3=O)c2)cc1 [compound 42],area of lesion spots on the treated plant relative to that on an untreated plant,[5],≤ 30%
COc1ccc(-c2cccc(OCc3c(OC)cccc3-n3nnn(C)c3=O)c2)cc1 [compound 44],area of lesion spots on the treated plant relative to that on an untreated plant,[5],≤ 30%
same,area of lesion spots on the treated plant relative to that on an untreated plant,[4],≤ 30%
same,area of lesion spots on the treated plant relative to that on an untreated plant,[1],≤ 30%
Cc1cccc(-n2nnn(C)c2=O)c1COc1cccc(-c2ccc(C(F)(F)F)cc2)c1 [compound 49],area of lesion spots on the treated plant relative to that on an untreated plant,[1],≤ 30%
Cc1cccc(-n2nnn(C)c2=O)c1COc1cccc(-c2ccc(N(C)C)cc2)c1 [compound 51],area of lesion spots on the treated plant relative to that on an untreated plant,[2]; [9],≤ 30%
same,area of lesion spots on the treated plant relative to that on an untreated plant,[3]; [8],≤ 30%
Cc1cccc(-n2nnn(C)c2=O)c1COc1cccc(-c2ccccc2Cl)c1 [compound 53],area of lesion spots on the treated plant relative to that on an untreated plant,[5],≤ 30%
COc1ccc(-c2cccc(OCc3c(Cl)cccc3-n3nnn(C)c3=O)n2)cc1 [compound 67],area of lesion spots on the treated plant relative to that on an untreated plant,[4],≤ 30%
Cc1cccc(-n2nnn(C)c2=O)c1COc1cccc(-c2ccc(OC(C)C)cc2)n1 [compound 73],area of lesion spots on the treated plant relative to that on an untreated plant,[1],≤ 30%
COc1ccccc1-c1cncc(OCc2c(C)cccc2-n2nnn(C)c2=O)c1 [compound 81],area of lesion spots on the treated plant relative to that on an untreated plant,[3]; [7],≤ 30%
Cc1cccc(-n2nnn(C)c2=O)c1COc1cncc(-c2ccccc2Cl)c1 [compound 82],area of lesion spots on the treated plant relative to that on an untreated plant,[2]; [6],≤ 30%
COc1cccc(-c2cc(OCc3c(C)cccc3-n3nnn(C)c3=O)ccn2)c1 [compound 83],area of lesion spots on the treated plant relative to that on an untreated plant,[5],≤ 30%
same,area of lesion spots on the treated plant relative to that on an untreated plant,[3]; [7],≤ 30%
Cc1cccc(-n2nnn(C)c2=O)c1COc1ccnc(-c2ccc(F)cc2)c1 [compound 85],area of lesion spots on the treated plant relative to that on an untreated plant,[5],≤ 30%
Cc1cccc(-n2nnn(C)c2=O)c1COc1ccnc(-c2ccc(Cl)cc2)n1 [compound 93],area of lesion spots on the treated plant relative to that on an untreated plant,[4],≤ 30%
same,area of lesion spots on the treated plant relative to that on an untreated plant,[1],≤ 30%
Cc1cccc(-n2nnn(C)c2=O)c1COc1ccnc(-c2ccccc2Cl)n1 [compound 95],area of lesion spots on the treated plant relative to that on an untreated plant,[2]; [9],≤ 30%
same,area of lesion spots on the treated plant relative to that on an untreated plant,[5],≤ 30%
COc1ccc(-c2ccnc(OCc3c(C)cccc3-n3nnn(C)c3=O)n2)cc1 [compound 100],area of lesion spots on the treated plant relative to that on an untreated plant,[2]; [6],≤ 30%
same,area of lesion spots on the treated plant relative to that on an untreated plant,[4],≤ 30%
Cc1cccc(-n2nnn(C)c2=O)c1COc1cccc(C2=CCCCC2)c1 [compound 102],area of lesion spots on the treated plant relative to that on an untreated plant,[4],≤ 30%
same,area of lesion spots on the treated plant relative to that on an untreated plant,[1],≤ 30%
COC(=O)c1ccc(-c2cccc(OCc3c(C)cccc3-n3nnn(C)c3=O)n2)cc1 [compound 106],area of lesion spots on the treated plant relative to that on an untreated plant,[3]; [8],≤ 30%
COc1ccc(-c2ncnc(OCc3c(C)cccc3-n3nnn(C)c3=O)n2)cc1 [compound 109],area of lesion spots on the treated plant relative to that on an untreated plant,[2]; [6],≤ 30%
same,area of lesion spots on the treated plant relative to that on an untreated plant,[3]; [7],≤ 30%
COc1ccc(-c2cccc(OCc3c(C)cccc3-n3nnn(C)c3=O)c2F)cn1 [compound 113],area of lesion spots on the treated plant relative to that on an untreated plant,[2]; [6],≤ 30%
Cc1ccc(OCc2c(C)cccc2-n2nnn(C)c2=O)cc1-c1ccccc1 [compound 117],area of lesion spots on the treated plant relative to that on an untreated plant,[1],≤ 30%
COc1ccc(-c2cc(OCc3c(C)cccc3-n3nnn(C)c3=O)ccc2C)cc1 [compound 120],area of lesion spots on the treated plant relative to that on an untreated plant,[4],≤ 30%
same,area of lesion spots on the treated plant relative to that on an untreated plant,[1],≤ 30%
COc1ccc(-c2ccc(F)c(OCc3c(C)cccc3-n3nnn(C)c3=O)c2)cn1 [compound 127],area of lesion spots on the treated plant relative to that on an untreated plant,[2]; [6],≤ 30%
same,area of lesion spots on the treated plant relative to that on an untreated plant,[4],≤ 30%
Cc1cccc(-n2nnn(C)c2=O)c1COc1cc(-c2ccccc2)ccc1Cl [compound 128],area of lesion spots on the treated plant relative to that on an untreated plant,[2]; [9],≤ 30%
same,area of lesion spots on the treated plant relative to that on an untreated plant,[5],≤ 30%
same,area of lesion spots on the treated plant relative to that on an untreated plant,[1],≤ 30%
Cc1cccc(-n2nnn(C)c2=O)c1COc1cc(-c2ccc(F)cc2)ccc1Cl [compound 132],area of lesion spots on the treated plant relative to that on an untreated plant,[4],≤ 30%
Cc1cccc(-n2nnn(C)c2=O)c1COc1cc(-c2ccc(Cl)cc2)ccc1F [compound 134],area of lesion spots on the treated plant relative to that on an untreated plant,[2]; [6],≤ 30%
same,area of lesion spots on the treated plant relative to that on an untreated plant,[5],≤ 30%
same,area of lesion spots on the treated plant relative to that on an untreated plant,[4],≤ 30%
same,area of lesion spots on the treated plant relative to that on an untreated plant,[1],≤ 30%
COc1ccc(OCc2c(C)cccc2-n2nnn(C)c2=O)cc1-c1ccccc1 [compound 136],area of lesion spots on the treated plant relative to that on an untreated plant,[5],≤ 30%
same,area of lesion spots on the treated plant relative to that on an untreated plant,[4],≤ 30%
same,area of lesion spots on the treated plant relative to that on an untreated plant,[1],≤ 30%
COc1ccc(-c2cc(C)cc(OCc3c(C)cccc3-n3nnn(C)c3=O)c2)cc1 [compound 142],area of lesion spots on the treated plant relative to that on an untreated plant,[2]; [9],≤ 30%
Cc1cc(OCc2c(C)cccc2-n2nnn(C)c2=O)cc(-c2ccc(Cl)cc2)c1 [compound 145],area of lesion spots on the treated plant relative to that on an untreated plant,[2]; [9],≤ 30%
same,area of lesion spots on the treated plant relative to that on an untreated plant,[4],≤ 30%
COc1ccccc1-c1cc(C)cc(OCc2c(C)cccc2-n2nnn(C)c2=O)c1 [compound 146],area of lesion spots on the treated plant relative to that on an untreated plant,[2]; [9],≤ 30%
same,area of lesion spots on the treated plant relative to that on an untreated plant,[5],≤ 30%
COc1cccc(-c2cc(C)cc(OCc3c(C)cccc3-n3nnn(C)c3=O)c2)c1 [compound 148],area of lesion spots on the treated plant relative to that on an untreated plant,[2]; [9],≤ 30%
same,area of lesion spots on the treated plant relative to that on an untreated plant,[5],≤ 30%
same,area of lesion spots on the treated plant relative to that on an untreated plant,[4],≤ 30%
Cc1cccc(-n2nnn(C)c2=O)c1COc1ccc(F)c(-c2ccccc2)c1 [compound 150],area of lesion spots on the treated plant relative to that on an untreated plant,[2]; [6],≤ 30%
same,area of lesion spots on the treated plant relative to that on an untreated plant,[5],≤ 30%
COc1ccc(-c2cc(OCc3c(C)cccc3-n3nnn(C)c3=O)ccc2F)cn1 [compound 151],area of lesion spots on the treated plant relative to that on an untreated plant,[2]; [9],≤ 30%
COc1ccc(-c2cc(OCc3c(C)cccc3-n3nnn(C)c3=O)ccc2F)cc1 [compound 153],area of lesion spots on the treated plant relative to that on an untreated plant,[2]; [6],≤ 30%
same,area of lesion spots on the treated plant relative to that on an untreated plant,[1],≤ 30%
Cc1cccc(-n2nnn(C)c2=O)c1COc1ccc(F)c(-c2ccc(F)cc2)c1 [compound 154],area of lesion spots on the treated plant relative to that on an untreated plant,[2]; [9],≤ 30%
same,area of lesion spots on the treated plant relative to that on an untreated plant,[1],≤ 30%
COc1ccccc1-c1cc(OCc2c(C)cccc2-n2nnn(C)c2=O)ccc1F [compound 155],area of lesion spots on the treated plant relative to that on an untreated plant,[5],≤ 30%
Cc1cccc(-n2nnn(C)c2=O)c1COc1cccc(-c2ccc3ocnc3c2)n1 [compound 156],area of lesion spots on the treated plant relative to that on an untreated plant,[2]; [9],≤ 30%
Cc1cccc(-n2nnn(C)c2=O)c1COc1cccc(-c2ccc3ocnc3c2)c1 [compound 159],area of lesion spots on the treated plant relative to that on an untreated plant,[2]; [9],≤ 30%
same,area of lesion spots on the treated plant relative to that on an untreated plant,[5],≤ 30%
"COc1cnc(-c2cccc(OCc3c(C)cccc3-n3nnn(C)c3=O)c2)nc1 [compound 163, 1-{2-[3-(5-methoxypyrimidin-2-yl)phenoxymethyl]-3-methylphenyl}-4-methyl-1,4-dihydrotetrazol-5-one]",area of lesion spots on the treated plant relative to that on an untreated plant,[2]; [9],≤ 30%
same,area of lesion spots on the treated plant relative to that on an untreated plant,[5],≤ 30%
"COc1ccc(-c2cccc(OCc3c(C)cccc3-n3nnn(C)c3=O)c2)nn1 [compound 165, 1-{2-[3-(3-methoxypyridazin-6-yl)phenoxymethyl]-3-methylphenyl}-4-methyl-1,4-dihydrotetrazol-5-one]",area of lesion spots on the treated plant relative to that on an untreated plant,[2]; [6],≤ 30%
same,area of lesion spots on the treated plant relative to that on an untreated plant,[3]; [7],≤ 30%
Cc1cccc(-n2nnn(C)c2=O)c1COc1cccc(-c2ccnn2C)n1 [compound 175],area of lesion spots on the treated plant relative to that on an untreated plant,[1],≤ 30%
Cc1cccc(-n2nnn(C)c2=O)c1COc1cccc(-c2ccnn2C)c1 [compound 177],area of lesion spots on the treated plant relative to that on an untreated plant,[1],≤ 30%
COc1cc(F)ccc1-c1cccc(OCc2c(C)cccc2-n2nnn(C)c2=O)c1 [compound 180],area of lesion spots on the treated plant relative to that on an untreated plant,[4],≤ 30%
Cc1cccc(-n2nnn(C)c2=O)c1COc1cccc(-c2ccc(Cl)s2)c1 [compound 209],area of lesion spots on the treated plant relative to that on an untreated plant,[1],≤ 30%
